Test results as given in patent US20060039911A1, “Method for the treatment of gastroesophageal reflux disease” (Aphton Corporation, priority 1998, published 2006).
For at least one compound, name, drawing or mass did not settle the structure. Some of these results come from one statement about several compounds together.

What was measured:
[1] = system: pH of the stomach contents; assay: pH of the stomach contents of treated pigs; format: in vivo
Excerpt: FIG. 1 illustrates experimental data concerning the percentage of time that the gastric contents remain above pH 3 in different groups of pigs treated with ranitidine (4 animals), omeprazole (5 animals) and hG17(1-9) (4 animals), as compared to six (6) control animals.
FIG. 2 illustrates the percentage of time that the gastric contents remain above pH 4 in a group of untreated (control) pigs […] and groups of pigs treated with human gastrin 17(1-9)Ser9-Diphtheria […] (4 animals), ranitidine (4 animals) and omeprazole (5 animals) as described in FIG. 1.
FIG. 3 depicts the baseline median pH of the gastric contents of a group of six (6) untreated (control) pigs and groups of four (4) pigs treated with human G17(1-9)Ser9-Diphtheria Toxoid, […] pigs with ranitidine and five (5) pigs with omeprazole as described in FIG. 1.
In the following Examples, the anti G17 immunogenic composition, 150 mg ranitidine and 60 mg omeprazole were administered to pigs and the resulting changes in the pH of the stomach contents before and after treatment were measured. Specifically, following the stomach pH measurements of the untreated control state of each pig, the stomach pH of the same pigs was measured after the animals were treated with either ranitidine, or composition of human gastrin 17(1-9)-h(G 17)ser9-Diphtheria Toxoid (Gastrimmune), or omeprazole administered individually and at different times in each of four animals (pigs).

GERD patients = details: cited from earlier work; for effectiveness in alleviating the symptoms of GERD esophagitis compared with histamine H2 blockers: human, in vivo
[2] = omeprazole, 4-8 weeks of treatment for GERD
[3] = 400-800 mg cimetidine and 150-300 mg ranitidine twice daily

SMILES | inhibition of acid output from the stomach [1] | time that the gastric contents remain above pH 3 ([1]; FIG. 1, 150 mg ranitidine, 60 mg omeprazole) | time that the gastric contents remain above pH 4 ([1]; FIG. 2, 150 mg ranitidine, 60 mg omeprazole) | median pH of the stomach contents ([1]; FIG. 3) | effectiveness in alleviating the symptoms of GERD esophagitis compared with histamine H2 blockers (GERD patients) | healing of the esophagitis, patients (mean) (GERD patients; [2]) [%] | healing of the esophagitis, patients (range) (GERD patients; [2]) | symptomatic relief (mean) (GERD patients; [2]) [%] | symptomatic relief (range) (GERD patients; [2]) | patients with healing of esophagitis, endoscopically determined (mean) (GERD patients; [3]) [%] | patients with symptomatic relief of GERD (mean) (GERD patients; [3]) [%] | patients with symptomatic relief of GERD (range) (GERD patients; [3]) | efficacy in GERD patients at doses and durations proven effective in healing peptic ulcers (GERD patients; GERD patients, peptic ulcer doses and durations)
COc1ccc2[nH]c([S+]([O-])Cc3ncc(C)c(OC)c3C)nc2c1 (centres unmarked) [omeprazole] | highly inhibited acid output | for a longer period of time than pigs which were treated with ranitidine and anti-G17 immunized pigs | for a longer period of time than pigs which were treated with ranitidine and anti-G17 immunized pigs | maintained at higher levels | more effective than histamine H2 blockers | 78 | 71-96% | 83 | 62-94% |  |  |  | 
COc1ccnc(C[S+]([O-])c2nc3ccc(OC(F)F)cc3[nH]2)c1OC (centres unmarked) [pantoprazole] |  |  |  |  | more effective than histamine H2 blockers |  |  |  |  |  |  |  | 
CNC(=C[N+](=O)[O-])NCCSCc1ccc(CN(C)C)o1 [ranitidine] |  |  |  |  |  |  |  |  |  | 48 | 61 | 50-70% | not effective in GERD
